Drawing on article PMC7819943, “Rice protein-binding microarrays: a tool to detect cis-acting elements near promoter regions in rice”, this text covers binding signal for 42 sequences.

This is one part of the list.

The target of the test is T1, OsSMF1 (Oryza sativa, UniProt Q6ZLB0 1-436).
T1 sequence: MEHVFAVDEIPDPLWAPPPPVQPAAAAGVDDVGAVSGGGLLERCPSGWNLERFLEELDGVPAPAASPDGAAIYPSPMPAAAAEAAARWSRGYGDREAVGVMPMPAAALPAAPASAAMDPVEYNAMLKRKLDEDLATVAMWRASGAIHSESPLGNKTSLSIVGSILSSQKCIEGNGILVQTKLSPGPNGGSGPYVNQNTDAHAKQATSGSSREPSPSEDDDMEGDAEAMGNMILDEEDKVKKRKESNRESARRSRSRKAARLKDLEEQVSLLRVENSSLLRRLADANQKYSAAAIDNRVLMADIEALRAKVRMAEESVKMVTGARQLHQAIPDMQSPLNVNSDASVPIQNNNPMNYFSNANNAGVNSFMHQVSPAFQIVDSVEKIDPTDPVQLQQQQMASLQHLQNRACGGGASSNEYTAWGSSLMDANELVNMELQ
Nature of the test: protein-binding microarray (RPBM); PBS, 2% BSA, 51.3 ng/ul salmon testes DNA, 50 uM zinc acetate, 200 nM TF, 25 C, 1 h; high values mean tight binding. Conditions: protein: recombinant; tags: N-terminal polyhistidine and DsRed monomer fusion (pET32a); chain copies: 2; label: CyDye5-dUTP incorporated in the synthesized complementary strand; 3' TTTTT single-stranded linker to array surface; dsDNA, one strand shown. Put shortly: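 Ni–NTA purification followed expression in E. coli BL21-CodonPlus of transcription factors fused N-terminally to a polyhistidine tag and DsRed. At 200 nM in PBS with 2% BSA, salmon testes DNA and 50 µM zinc acetate, the protein was incubated for 1 h at 25 °C with a custom Agilent array that had been primer-extended with Cy5-dUTP and blocked with 2% BSA. After washing, the array was read on an Axon 4000B scanner. The binding signal is per-feature fluorescence intensity in arbitrary units.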
For “TTTCCAGCTCGCTCCGTTCCTCGTCGATCATGTCACGGGCCGGAGTCACCTAGTGCAG”, the binding signal was 3800 fluorescence intensity (a.u.).
With “CCCCTCCACTCGCCCTTCAATCTCCCACTGCCACCTCGGCCGGAGTCACCTAGTGCAG”, the binding signal was 4120 fluorescence intensity (a.u.).
Under “GTTTATTACGTGGATCTGTGAATTTGTTCATTGTGGACCTCGGAGTCACCTAGTGCAG” stands 8770 fluorescence intensity (a.u.).
In the case of “CTTCCCAGGACTCTATCCATGCGTGGCAATCATCTTGAAGCGGAGTCACCTAGTGCAG”, the binding signal was 7520 fluorescence intensity (a.u.).
As to “TGCACTAGCTGATGACGTTTGGCGTTTGGAGAAAATTGGGCGGAGTCACCTAGTGCAG”, the binding signal was 4340 fluorescence intensity (a.u.).
Under “TCACGGTGGCTGAATAAATTATATGTTAACACGGAAGCCTCGGAGTCACCTAGTGCAG” stands 14600 fluorescence intensity (a.u.); under “TGCAAGGAAAATCCCTTGGTCAGGTATGACACTTGCTGTTCGGAGTCACCTAGTGCAG”, 3800 fluorescence intensity (a.u.).
As for “CTTCGCGTGCGGTGTGCCGTGCGTGTATGTGACCACCGTCCGGAGTCACCTAGTGCAG”, the binding signal was 4600 fluorescence intensity (a.u.).
Take “TTGGATATTAGTAGTAGATTGGCCAACATCACCATGTCAACGGAGTCACCTAGTGCAG”: the binding signal was 3340 fluorescence intensity (a.u.).
Under “GCTGGGTTAGATTTATAAACGGGCCTCCTAGTCTATTCTGCGGAGTCACCTAGTGCAG” stands 3480 fluorescence intensity (a.u.); under “AACAGTTATTAGTCAACTGATGGTGCCATGTCATACGGTGCGGAGTCACCTAGTGCAG”, 11300 fluorescence intensity (a.u.); under “CTTCCTGAACTGTTGATCAGATTGTGTGCATGTATGTATGCGGAGTCACCTAGTGCAG”, 3270 fluorescence intensity (a.u.).
The value for “CCGAAATCCCGTACTTCCCACTGACACGTAGGCCCCACTGCGGAGTCACCTAGTGCAG” was 8290 fluorescence intensity (a.u.).
Take “TATCCATAAGATACAGATGACTCATCTTCTGATGTTCCATCGGAGTCACCTAGTGCAG”: the binding signal was 12000 fluorescence intensity (a.u.).
In the case of “TGCTGCCTTTATCATCACCAAGAGCCACTACCTTGCCTTACGGAGTCACCTAGTGCAG”, the binding signal was 4370 fluorescence intensity (a.u.).
As for “TCCACGCCGATCCGTCTCTCCTCGTCACCGCCGTGCAGAGCGGAGTCACCTAGTGCAG”, the binding signal was 6270 fluorescence intensity (a.u.).
For “CCGCTCCGGTGATCGGATCCCCACAGCTTTGCGTTTGCACCGGAGTCACCTAGTGCAG”, the binding signal was 17200 fluorescence intensity (a.u.).
With “TCCGAGTTCCGTCGGCGTCCGCTCGTCTGTTCCGTTGGTGCGGAGTCACCTAGTGCAG”, the binding signal was 3290 fluorescence intensity (a.u.).
For the sequence “ACCTTCACGCAGCGGCCTCTCCCCGTGCGCCGCCGTGGCGCGGAGTCACCTAGTGCAG”, the binding signal was 4260 fluorescence intensity (a.u.).
The value for “TTGTGTGTGTGTATCCCCTGTGACACAGTCGTAATCGATGCGGAGTCACCTAGTGCAG” was 5200 fluorescence intensity (a.u.); that for “TGTTTAAGTTTGGTGATTTCAATTCTGACCTGTAAATTGTCGGAGTCACCTAGTGCAG” was 3450 fluorescence intensity (a.u.).
As for “CTCACGAGGGGAGAGGGGAGCACGTGGGCATGGCTGGCACCGGAGTCACCTAGTGCAG”, the binding signal was 4210 fluorescence intensity (a.u.).
The value for “GCAAGTATAACTCTGCTTCCTTCTAATATATTGACGTGTTCGGAGTCACCTAGTGCAG” was 6260 fluorescence intensity (a.u.); that for “CCTGCCAATCCCGCCACGTTCTTGCGGCCCAGCCATCCATCGGAGTCACCTAGTGCAG” was 4220 fluorescence intensity (a.u.); that for “GTAATAGAAGCATGGGACCTATACACCAGTTGATTATAATCGGAGTCACCTAGTGCAG” was 25600 fluorescence intensity (a.u.).
Under “CACTGTCCATCCATGGTGGTGGTCAGACAACCCCAGCACACGGAGTCACCTAGTGCAG” stands 3990 fluorescence intensity (a.u.); under “GCGACGCATGGACATGTCGCGAGGGCGGGCCGGCCCGTCCCGGAGTCACCTAGTGCAG”, 4540 fluorescence intensity (a.u.); under “AGAGAGTGCTGGGGTGGATGGCGACGATGGCGTGACGGAGCGGAGTCACCTAGTGCAG”, 5390 fluorescence intensity (a.u.).
As to “GCTACTATCCAAAACAAATGTGCTACTAAAATGAGGTTGACGGAGTCACCTAGTGCAG”, the binding signal was 16900 fluorescence intensity (a.u.).
The value for “TCAGTTTCATCCGACGGTTCTCGTATTTTAGATGATGTGGCGGAGTCACCTAGTGCAG” was 10800 fluorescence intensity (a.u.).
Regarding “AATTCTGATAAAATAGGGTTACTAAAAGGTTGACGTTTCACGGAGTCACCTAGTGCAG”, the binding signal was 3250 fluorescence intensity (a.u.).
Take “CGCGGACCGGCGTGGCCTCGCCGGCCCCGGGCAATGTCCCCGGAGTCACCTAGTGCAG”: the binding signal was 3470 fluorescence intensity (a.u.).
On to “CCGTTAGCCTCCAACGATCCAAACCGCCTCGTCATAAATACGGAGTCACCTAGTGCAG”, for which the binding signal is 3460 fluorescence intensity (a.u.).
Under “ACGTGTGGTTGGTGACACCGAGATCCCGTGTTTAATCCCCCGGAGTCACCTAGTGCAG” stands 4270 fluorescence intensity (a.u.); under “ATTGGTATGGTATATTCATACCATAACATAAGAACAATAACGGAGTCACCTAGTGCAG”, 21200 fluorescence intensity (a.u.); under “TTGGAGTCCGTGCTGCAGCTGGCTACAGATCTGTAGCCCGCGGAGTCACCTAGTGCAG”, 37600 fluorescence intensity (a.u.).
Under “GAGCAGAGGTCGGCGTCGCGGAGGCCACAGGAGACGGCGACGGAGTCACCTAGTGCAG” stands 23700 fluorescence intensity (a.u.); under “TAATAGTTGGTCACGTCATATCCATTGCATGCAGCTCATCCGGAGTCACCTAGTGCAG”, 5940 fluorescence intensity (a.u.); under “GCCGGCGCTGCCCGCAACCGATGCGTCACCCTCCTCACTACGGAGTCACCTAGTGCAG”, 7720 fluorescence intensity (a.u.).
Regarding “GAAGGGGCGAGCAAGGAGGGGTGCCACGTAGGATAGCAATCGGAGTCACCTAGTGCAG”, the binding signal was 6350 fluorescence intensity (a.u.).
Turning to “ACTGGCTTGAACCGTCATCGTCACGTGCTGCTGAAAAGGGCGGAGTCACCTAGTGCAG”, the binding signal was 6550 fluorescence intensity (a.u.).
With “CAAACGATCACCATAGTTGTCATCCTCTGTCACCATAGTTCGGAGTCACCTAGTGCAG”, the binding signal was 5980 fluorescence intensity (a.u.).
